Measurements published in patent US10919843B2, “Cannabidiol derivatives as inhibitors of the HIF prolyl hydroxylases activity” (priority 2017, dated 2021).
At least one structure is not confirmed: it was looked up by name or label, or the drawing left a doubt.

Tested on: PHDs
Test: HIF-1α hydroxylation by PHDs in MO13.3 cells (Western blot of OH-HIF-1α)
Format: cell-based, human

Compound: C=C(C)[C@@H]1CCC(C)=C[C@H]1C1=C(O)C(=O)C(CCCCC)=C(NC(C)C)C1=O [Compound VII]
- PDHs prolyl hydrolase activity: inhibits
